# Measured values from article PMC7862363.
# The chains behind the UniProt entries cited, without tags or fusion partners. Where a name states a change or a piece, a line headed by the entry shows the natural chain unless it says otherwise.
# UniProt P12643: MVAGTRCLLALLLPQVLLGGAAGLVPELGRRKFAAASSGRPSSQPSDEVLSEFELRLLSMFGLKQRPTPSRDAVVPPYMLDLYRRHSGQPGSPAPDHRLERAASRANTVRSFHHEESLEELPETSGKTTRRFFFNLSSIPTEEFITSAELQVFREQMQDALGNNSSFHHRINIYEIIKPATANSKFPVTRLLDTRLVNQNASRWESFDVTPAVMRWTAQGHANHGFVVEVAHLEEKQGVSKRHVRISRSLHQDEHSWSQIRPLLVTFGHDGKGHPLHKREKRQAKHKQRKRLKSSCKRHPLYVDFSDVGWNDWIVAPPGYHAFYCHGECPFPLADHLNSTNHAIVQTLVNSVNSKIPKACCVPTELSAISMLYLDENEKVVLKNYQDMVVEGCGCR
# B1: Flag-OMD (full-length osteomodulin) (protein, UniProt Q99983 21-421)
# chain: QYETYQWDEDYDQEPDDDYQTGFPFRQNVDYGVPFHQYTLGCVSECFCPTNFPSSMYCDNRKLKTIPNIPMHIQQLYLQFNEIEAVTANSFINATHLKEINLSHNKIKSQKIDYGVFAKLPNLLQLHLEHNNLEEFPFPLPKSLERLLLGYNEISKLQTNAMDGLVNLTMLDLCYNYLHDSLLKDKIFAKMEKLMQLNLCSNRLESMPPGLPSSLMYLSLENNSISSIPEKYFDKLPKLHTLRMSHNKLQDIPYNIFNLPNIVELSVGHNKLKQAFYIPRNLEHLYLQNNEIEKMNLTVMCPSIDPLHYHHLTYIRVDQNKLKEPISSYIFFCFPHIHTIYYGEQRSTNGQTIQLKTQVFRRFPDDDDESEDHDDPDNAHESPEQEGAEGHFDLHYYENQE
# Target: HA-BMP2 (bone morphogenetic protein 2) (UniProt P12643)
# Assay: co-IP; 293T cells co-transfected with two tagged constructs; MG132 12 h before harvest; EBC lysis buffer; 500 μg protein with anti-FLAG M2-agarose or anti-HA agarose beads, 3 h, 4 °C; washed four times with NETN buffer; immunoblot
binder,measurement,value
B1,binding,binds

# Results are given in words; binding and its absence hold for the method and conditions named. In cells and extracts the contact can be indirect. Binding calls can cover weak binding; strength is not graded here. Sequences can lack the tags named with a protein.
